From PubChem BioAssay AID540276 (National Center for Advancing Translational Sciences (NCATS), 2011)
Out of some 300,000 compounds screened, about 5,400 (1.8%) were called active. The inconclusive results got no clear call from the source; some entries with a clear call stand among them for comparison. Calls come from the whole dose curve; tested in HEK293 cells. Potencies of inconclusive entries are doubtful fits and often do not repeat.

test: qHTS for inhibitors of binding or entry into cells for Marburg Virus; conditions: Marburg virus pseudotyped entry inhibition, cell reporter; series mostly up to 37.8 µM
Potency is the fitted concentration of half-maximal effect.

**Q.** For `C=CCn1c(SCC(=O)Nc2c(C)n(C)n(-c3ccccc3)c2=O)nc2sc(C)c(-c3ccccc3)c2c1=O`, which Potency is on record?
**A.** The Potency was inconclusive: 12.6 µM [inhibitor, partial curve, poor fit].

**Q.** For `O=C(O)CN1C(=O)/C(=C\c2ccsc2)SC1=S`, which Potency is on record?
**A.** Its Potency is inconclusive: 35.5 µM [activator, single point].

**Q.** Which Potency does the source give for `Cc1ccc(NC(=O)N(Cc2cccnc2)Cc2ccco2)cc1C` here?
**A.** The Potency was inconclusive: 29.1 µM [inhibitor, single point].

**Q.** With `COc1ccc(CCN2C(=O)c3[nH]nc(-c4ccccc4O)c3C2c2ccccc2)cc1` (centres undefined) as the molecule, how does the Potency read?
**A.** The Potency was “inactive”.

**Q.** For `CCOC(=O)C1=C(C)N(C)C(=O)NC1c1c(C)nn(-c2ccc(C)cc2)c1Cl` (centres undefined), which Potency is on record?
**A.** The Potency was inconclusive: 11.2 µM [inhibitor, partial curve, poor fit].

**Q.** With `C[C@]12CCC3c4ccc(O)cc4CCC3C1CC/C2=N\N` (some centres undefined) as the molecule, how does the Potency read?
**A.** The Potency was inconclusive: 35.5 µM [activator, single point].

**Q.** Which Potency does the source give for `CCOC(=O)c1ccc(Nc2nnc(C)c3ccccc23)cc1` here?
**A.** Its Potency is inconclusive: 6.31 µM [inhibitor, single point].

**Q.** Which Potency does the source give for `O=C(CSc1nnc(NC(=O)c2ccccc2Cl)s1)Nc1ccc2c(c1)oc1ccccc12` here?
**A.** The Potency was “inactive”.

**Q.** For `CCOC(=O)C1=C(c2ccccc2)NC(=S)NC1c1ccc(Cl)cc1` (centres undefined), which Potency is on record?
**A.** Its Potency is inconclusive: 14.1 µM [inhibitor, partial curve, poor fit].

**Q.** For `COc1cccc(NC(=O)c2csnn2)c1`, which Potency is on record?
**A.** Its Potency is inconclusive: 35.5 µM [activator, single point].

**Q.** With `N#C/C(=C\c1ccco1)c1nc2ccccc2s1` as the molecule, how does the Potency read?
**A.** Its Potency is inconclusive: 0.316 µM [activator, partial curve, poor fit].

**Q.** Which Potency does the source give for `Fc1ccc2c(c1)-c1c(cnc3cc(-c4ccc(Cl)cc4)nn13)CO2` here?
**A.** The Potency was “inactive”.

**Q.** Which Potency does the source give for `CCC(=O)c1ccc(OCC(=O)N2CCN(c3ncccn3)CC2)cc1` here?
**A.** The Potency was inconclusive: 35.5 µM [inhibitor, partial curve, poor fit].

**Q.** Which Potency does the source give for `CCCn1c(CC)nc([N+](=O)[O-])c1S(=O)(=O)c1ccccc1` here?
**A.** The Potency was inconclusive: 29.1 µM [inhibitor, single point].

**Q.** For `COc1ccc(NC(=O)CCCn2cnc3ccccc3c2=O)cc1`, which Potency is on record?
**A.** The Potency was inconclusive: 5.62 µM [activator, partial curve, poor fit].

**Q.** For `O=S(=O)(Nc1ccc(N2CCCCC2)cc1)c1ccccc1F`, which Potency is on record?
**A.** Its Potency is “inactive”.

**Q.** With `COc1ccc(NC(=O)CSc2nnnn2-c2ccc(OC)cc2)cc1` as the molecule, how does the Potency read?
**A.** The Potency was “inactive”.

**Q.** Which Potency does the source give for `COC(=O)c1cccc(NC(=O)CSc2nnc(C)n2C)c1` here?
**A.** The Potency was inconclusive: 1.26 µM [inhibitor, partial curve, poor fit].

**Q.** Which Potency does the source give for `CC1=C(C(=O)Nc2ccc(C)cc2C)C(c2cccc([N+](=O)[O-])c2)n2nc(C(=O)OC(C)C)nc2N1` (centres undefined) here?
**A.** The Potency was inconclusive: 0.282 µM [activator, full curve, poor fit].

**Q.** With `CC(=O)/C=C\c1cn(-c2ncc(C(F)(F)F)cc2Cl)c2ccccc12` as the molecule, how does the Potency read?
**A.** The Potency was inconclusive: 0.282 µM [inhibitor, partial curve, poor fit].

**Q.** For `Cn1c(NCc2ccco2)nc2c1c(=O)n(Cc1ccc(Cl)cc1Cl)c(=O)n2C`, which Potency is on record?
**A.** The Potency was inconclusive: 16.4 µM [inhibitor, partial curve, poor fit].

**Q.** Which Potency does the source give for `Cc1ccc(C(=O)NCCc2c[nH]c3ccccc23)s1` here?
**A.** The Potency was inconclusive: 6.31 µM [activator, single point].

**Q.** For `CCOc1ccc(-c2cc3nc(C4CCN(C(=O)OC(C)(C)C)CC4)c(C(=O)Nc4c(C)cccc4C)cn3n2)cc1`, which Potency is on record?
**A.** Its Potency is active: 7.08 µM.

**Q.** With `O=C(c1ccc(S(=O)(=O)c2cccc(Cl)c2)c([N+](=O)[O-])c1)N1CCN(c2ccccn2)CC1` as the molecule, how does the Potency read?
**A.** Its Potency is active: 7.08 µM.

**Q.** For `Cc1ccc(F)cc1NC(=O)N1CCNC(=O)C1CC(=O)Nc1cc(Cl)ccc1Cl` (centres undefined), which Potency is on record?
**A.** Its Potency is inconclusive: 15.8 µM [activator, single point].

**Q.** For `O=c1/c(=C/c2ccc(O)cc2)sc2n1CCCN=2`, which Potency is on record?
**A.** Its Potency is “inactive”.

**Q.** With `N#CC1=C(N)Oc2cc3ccccc3cc2C1c1cccnc1` (centres undefined) as the molecule, how does the Potency read?
**A.** The Potency was inconclusive: 7.08 µM [inhibitor, partial curve].

**Q.** For `Cc1ccc(OCc2n[nH]c(=S)n2N)cc1C`, which Potency is on record?
**A.** The Potency was inconclusive: 0.282 µM [inhibitor, full curve, poor fit].

**Q.** Which Potency does the source give for `CC1(C(=O)NCCOc2ccccc2Cl)CC1(Cl)Cl` (centres undefined) here?
**A.** Its Potency is inconclusive: 3.16 µM [inhibitor, single point].

**Q.** With `C/C(=N/NC(=O)CN1CCN(Cc2ccccc2Cl)CC1)c1ccncc1` as the molecule, how does the Potency read?
**A.** Its Potency is inconclusive: 35.5 µM [inhibitor, single point].

**Q.** Which Potency does the source give for `COc1ccc(C(=O)/C=C/C(=O)N(Cc2ccccc2OC)C(C(=O)NC2CCCCC2)c2ccncc2)c(O)c1` (centres undefined) here?
**A.** The Potency was inconclusive: 8.91 µM [inhibitor, partial curve, poor fit].

**Q.** With `O=c1c2[nH]c3cccc(Cl)c3c2ncn1Cc1ccncc1` as the molecule, how does the Potency read?
**A.** Its Potency is inconclusive: 35.5 µM [inhibitor, single point].

**Q.** Which Potency does the source give for `CCOc1cc(-c2nccc3cc(OC)c(OC)cc23)cc(OCC)c1OCC` here?
**A.** The Potency was active: 12.6 µM.

**Q.** For `COc1ccc(-c2[nH]c(-c3ccc(SC)cc3)nc2SCC(=O)Nc2nccs2)cc1`, which Potency is on record?
**A.** The Potency was inconclusive: 0.1 µM [inhibitor, full curve, poor fit].

**Q.** For `Cc1cc(C)c(S(=O)(=O)N2CCCC(C(=O)N3CCOCC3)C2)c(C)c1` (centres undefined), which Potency is on record?
**A.** The Potency was inconclusive: 6.31 µM [inhibitor, single point].

**Q.** For `O=S(=O)(c1ccccc1)c1nc(-c2cccc(Cl)c2)oc1N1CCOCC1`, which Potency is on record?
**A.** Its Potency is inconclusive: 35.5 µM [inhibitor, single point].

**Q.** Which Potency does the source give for `O=C(NCC1CCCO1)c1c(O)c2ccccc2[nH]c1=O` (centres undefined) here?
**A.** Its Potency is inconclusive: 17.8 µM [activator, single point].

**Q.** Which Potency does the source give for `O=[N+]([O-])c1ccc(O)c(C=Nc2cccc3ncccc23)c1` here?
**A.** Its Potency is inconclusive: 7.08 µM [activator, full curve].

**Q.** With `CC(/C=C/c1ccc(N(C)C)cc1)=N\N=C1\NC(=O)CC(C(=O)Nc2ccccc2)S1` (centres undefined) as the molecule, how does the Potency read?
**A.** Its Potency is inconclusive: 22.4 µM [inhibitor, single point].

**Q.** For `O=C(CNC(=O)c1cccc(F)c1)N/N=C/c1cc(Br)ccc1OCc1ccccc1`, which Potency is on record?
**A.** Its Potency is inconclusive: 20.6 µM [inhibitor, single point].

**Q.** Which Potency does the source give for `COCCCNC(=O)C1Cc2cc(S(=O)(=O)N3CCCC3)ccc2N1C(C)=O` (centres undefined) here?
**A.** Its Potency is inconclusive: 8.91 µM [activator, single point].

**Q.** For `CCc1ccccc1NC(=S)NCCSc1ccc(Cl)cc1`, which Potency is on record?
**A.** The Potency was inconclusive: 31.6 µM [inhibitor, partial curve, poor fit].

**Q.** With `CC(=O)NC(CC(=O)NCC(=O)Nc1ccc(F)c(F)c1)c1ccccc1` (centres undefined) as the molecule, how does the Potency read?
**A.** The Potency was inconclusive: 5.62 µM [activator, single point].

**Q.** For `CCCOC(=O)c1ccc(NC(=O)C(=O)NCC2CCCO2)cc1` (centres undefined), which Potency is on record?
**A.** The Potency was “inactive”.

**Q.** For `O=C(c1cc([N+](=O)[O-])ccc1N1CCOCC1)N1CCN(S(=O)(=O)c2cc(Cl)ccc2Cl)CC1`, which Potency is on record?
**A.** The Potency was “inactive”.

**Q.** Which Potency does the source give for `CCOC(=O)c1cc(CC)sc1/N=C/C1C(=O)CCCC1=O` here?
**A.** The Potency was “inactive”.

**Q.** With `O=C1N=C(N2CCN(c3cccc4ccccc34)CC2)S/C1=C/c1cccs1` as the molecule, how does the Potency read?
**A.** Its Potency is inconclusive: 8.91 µM [inhibitor, partial curve, poor fit].

**Q.** Which Potency does the source give for `Cc1ccc(C)c(S(=O)(=O)Nc2cc(SCC(=O)O)c(O)c3ccccc23)c1` here?
**A.** The Potency was inconclusive: 35.5 µM [inhibitor, single point].

**Q.** With `O=C(c1nc(SCc2ccc([N+](=O)[O-])cc2)n2ccccc12)C(F)(F)F` as the molecule, how does the Potency read?
**A.** Its Potency is inconclusive: 20 µM [inhibitor, single point].

**Q.** For `CC(=O)N1CCN2C(=O)C1CCCC(=O)c1cc(C3CCCCC3)ccc12` (centres undefined), which Potency is on record?
**A.** Its Potency is “inactive”.

**Q.** For `CCCCCCCCNC(=O)/C(C#N)=C/c1ccccc1[N+](=O)[O-]`, which Potency is on record?
**A.** The Potency was inconclusive: 1.78 µM [activator, partial curve].

**Q.** With `Cc1ccc(C(=O)NCc2cccnc2)cc1S(=O)(=O)N1CCCCCC1` as the molecule, how does the Potency read?
**A.** The Potency was “inactive”.

**Q.** Which Potency does the source give for `Cc1ccc2cc(C)c3nnc(SCC(=O)N4CCN(C(=O)c5ccco5)CC4)n3c2c1` here?
**A.** The Potency was “inactive”.

**Q.** With `COc1cc(CNCc2ccco2)ccc1OCc1ccccc1` as the molecule, how does the Potency read?
**A.** Its Potency is inconclusive: 16.4 µM [inhibitor, partial curve, poor fit].

**Q.** With `C=CCOc1ccc(C2/C(=C(/O)c3ccc(OC)cc3)C(=O)C(=O)N2CCN2CCNCC2)cc1` (centres undefined) as the molecule, how does the Potency read?
**A.** Its Potency is “inactive”.

**Q.** Which Potency does the source give for `CN(C)c1ccc(C(=O)N2CCN(c3cc(C(F)(F)F)nc4ccccc34)CC2)cc1` here?
**A.** Its Potency is inconclusive: 0.251 µM [inhibitor, full curve, poor fit].

**Q.** For `CC(=O)N1CCN(S(=O)(=O)c2cccc(C(=O)NCc3ccc(F)cc3)c2)CC1`, which Potency is on record?
**A.** The Potency was inconclusive: 7.94 µM [inhibitor, partial curve].

**Q.** Which Potency does the source give for `COc1ccc(/C=N/NC(=O)CCn2c3ccccc3c3ccccc32)cc1O` here?
**A.** The Potency was inconclusive: 1.64 µM [inhibitor, full curve, poor fit].

**Q.** With `O=C(c1ccc(COc2ccc(Cl)cc2)cc1)N1CCCCC1` as the molecule, how does the Potency read?
**A.** Its Potency is inconclusive: 35.5 µM [inhibitor, partial curve, poor fit].

**Q.** For `CC1CCC2[C@@H](C)C(=O)OC3O[C@]4(C)CCC1C32OO4` (some centres undefined), which Potency is on record?
**A.** Its Potency is “inactive”.

**Q.** With `CCOC(=O)C1(Cc2ccccc2)CCN(Cc2cnc(N3CCOCC3)s2)CC1` as the molecule, how does the Potency read?
**A.** Its Potency is inconclusive: 25.1 µM [inhibitor, single point].

**Q.** For `Cc1ccc2nc3c(cc(C(=O)NCc4ccco4)c(=N)n3Cc3ccco3)c(=O)n2c1`, which Potency is on record?
**A.** The Potency was inconclusive: 2.24 µM [inhibitor, full curve, poor fit].

**Q.** With `CCCc1n[nH]c(=O)[nH]1` as the molecule, how does the Potency read?
**A.** Its Potency is inconclusive: 0.562 µM [activator, full curve, poor fit].

**Q.** With `CCOC(=O)c1cnc2c(C)cc(Cl)cc2c1NCCCN1CCOCC1` as the molecule, how does the Potency read?
**A.** The Potency was inconclusive: 35.5 µM [inhibitor, single point].
